# Reference: the supplement of paper PMC6411743
# By UniProt entry, the sequences of proteins in these tests, tags left out. Where a name states a change or a piece, a line headed by the entry shows the natural chain unless it says otherwise.
# UniProt Q14191, whole entry: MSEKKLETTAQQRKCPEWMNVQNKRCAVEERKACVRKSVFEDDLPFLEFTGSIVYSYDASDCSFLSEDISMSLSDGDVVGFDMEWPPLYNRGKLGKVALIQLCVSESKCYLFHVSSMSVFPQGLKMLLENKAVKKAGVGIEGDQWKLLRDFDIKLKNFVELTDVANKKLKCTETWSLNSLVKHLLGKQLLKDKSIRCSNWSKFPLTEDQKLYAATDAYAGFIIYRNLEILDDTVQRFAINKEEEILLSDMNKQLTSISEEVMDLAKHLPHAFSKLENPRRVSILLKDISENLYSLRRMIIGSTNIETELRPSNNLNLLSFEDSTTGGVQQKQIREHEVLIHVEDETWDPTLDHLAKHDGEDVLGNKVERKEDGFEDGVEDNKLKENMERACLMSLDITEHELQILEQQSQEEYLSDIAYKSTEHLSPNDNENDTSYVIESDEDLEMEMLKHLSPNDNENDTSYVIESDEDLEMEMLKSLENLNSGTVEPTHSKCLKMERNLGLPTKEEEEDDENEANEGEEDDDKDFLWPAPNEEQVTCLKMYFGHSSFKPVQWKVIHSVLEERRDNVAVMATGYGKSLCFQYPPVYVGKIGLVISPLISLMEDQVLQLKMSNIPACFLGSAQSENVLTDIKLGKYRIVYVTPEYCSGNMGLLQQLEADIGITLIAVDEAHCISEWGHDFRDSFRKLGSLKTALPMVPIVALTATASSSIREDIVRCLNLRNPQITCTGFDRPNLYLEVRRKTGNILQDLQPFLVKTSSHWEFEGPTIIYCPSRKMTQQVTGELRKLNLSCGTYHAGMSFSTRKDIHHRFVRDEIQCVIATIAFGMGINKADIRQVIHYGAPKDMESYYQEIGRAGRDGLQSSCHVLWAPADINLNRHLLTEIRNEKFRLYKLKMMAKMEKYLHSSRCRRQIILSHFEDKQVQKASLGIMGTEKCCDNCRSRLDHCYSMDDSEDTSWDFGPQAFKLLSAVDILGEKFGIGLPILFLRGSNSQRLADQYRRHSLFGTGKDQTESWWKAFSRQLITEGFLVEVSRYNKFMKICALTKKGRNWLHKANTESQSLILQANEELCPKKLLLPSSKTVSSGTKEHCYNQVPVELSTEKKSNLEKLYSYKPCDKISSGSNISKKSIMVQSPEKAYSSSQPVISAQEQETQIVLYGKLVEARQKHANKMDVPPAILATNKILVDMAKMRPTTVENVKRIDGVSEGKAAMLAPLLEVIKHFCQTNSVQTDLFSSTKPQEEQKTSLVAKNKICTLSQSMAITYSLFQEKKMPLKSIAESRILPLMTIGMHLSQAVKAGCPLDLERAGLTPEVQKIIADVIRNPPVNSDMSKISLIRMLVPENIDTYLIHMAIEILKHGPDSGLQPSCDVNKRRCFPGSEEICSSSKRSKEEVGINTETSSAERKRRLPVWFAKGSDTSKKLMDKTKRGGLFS
# UniProt Q32MZ4: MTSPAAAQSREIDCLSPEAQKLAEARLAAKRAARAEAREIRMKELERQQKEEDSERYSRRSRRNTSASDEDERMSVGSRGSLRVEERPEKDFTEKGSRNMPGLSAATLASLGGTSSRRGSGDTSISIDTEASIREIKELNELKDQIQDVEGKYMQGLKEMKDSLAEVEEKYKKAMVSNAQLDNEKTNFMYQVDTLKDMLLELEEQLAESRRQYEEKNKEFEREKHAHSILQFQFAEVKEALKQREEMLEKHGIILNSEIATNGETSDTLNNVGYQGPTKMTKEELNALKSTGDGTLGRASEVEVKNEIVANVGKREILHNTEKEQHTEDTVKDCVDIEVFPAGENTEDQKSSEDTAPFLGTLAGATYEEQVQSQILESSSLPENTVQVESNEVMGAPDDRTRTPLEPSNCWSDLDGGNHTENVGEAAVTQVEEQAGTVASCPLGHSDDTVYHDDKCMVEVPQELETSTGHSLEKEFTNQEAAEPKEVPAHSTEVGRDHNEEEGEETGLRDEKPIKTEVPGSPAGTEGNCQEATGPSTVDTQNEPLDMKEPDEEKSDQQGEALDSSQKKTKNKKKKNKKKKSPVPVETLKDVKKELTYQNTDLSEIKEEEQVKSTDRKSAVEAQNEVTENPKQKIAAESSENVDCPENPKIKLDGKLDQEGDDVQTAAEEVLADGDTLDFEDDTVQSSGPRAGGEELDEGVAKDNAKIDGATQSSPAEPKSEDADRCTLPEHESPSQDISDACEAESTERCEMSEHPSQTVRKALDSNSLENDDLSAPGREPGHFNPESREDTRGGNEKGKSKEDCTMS
# UniProt Q3ZCQ8: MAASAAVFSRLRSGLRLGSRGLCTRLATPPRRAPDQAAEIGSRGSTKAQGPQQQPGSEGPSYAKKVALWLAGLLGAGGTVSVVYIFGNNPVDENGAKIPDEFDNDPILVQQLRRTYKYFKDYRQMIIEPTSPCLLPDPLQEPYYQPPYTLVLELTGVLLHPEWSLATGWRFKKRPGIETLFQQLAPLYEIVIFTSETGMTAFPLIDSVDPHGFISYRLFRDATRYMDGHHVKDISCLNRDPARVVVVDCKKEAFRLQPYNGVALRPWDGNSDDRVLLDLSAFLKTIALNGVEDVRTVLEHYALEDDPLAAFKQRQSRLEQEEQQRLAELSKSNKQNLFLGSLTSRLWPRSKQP
# UniProt Q16762: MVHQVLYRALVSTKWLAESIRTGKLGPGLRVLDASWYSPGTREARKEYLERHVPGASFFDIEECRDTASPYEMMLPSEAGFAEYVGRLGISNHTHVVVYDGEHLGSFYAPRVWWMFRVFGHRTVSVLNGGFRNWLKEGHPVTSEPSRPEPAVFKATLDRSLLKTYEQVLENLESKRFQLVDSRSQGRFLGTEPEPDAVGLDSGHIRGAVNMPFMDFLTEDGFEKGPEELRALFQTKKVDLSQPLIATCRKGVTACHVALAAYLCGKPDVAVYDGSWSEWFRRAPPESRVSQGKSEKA
# UniProt Q2M1P5: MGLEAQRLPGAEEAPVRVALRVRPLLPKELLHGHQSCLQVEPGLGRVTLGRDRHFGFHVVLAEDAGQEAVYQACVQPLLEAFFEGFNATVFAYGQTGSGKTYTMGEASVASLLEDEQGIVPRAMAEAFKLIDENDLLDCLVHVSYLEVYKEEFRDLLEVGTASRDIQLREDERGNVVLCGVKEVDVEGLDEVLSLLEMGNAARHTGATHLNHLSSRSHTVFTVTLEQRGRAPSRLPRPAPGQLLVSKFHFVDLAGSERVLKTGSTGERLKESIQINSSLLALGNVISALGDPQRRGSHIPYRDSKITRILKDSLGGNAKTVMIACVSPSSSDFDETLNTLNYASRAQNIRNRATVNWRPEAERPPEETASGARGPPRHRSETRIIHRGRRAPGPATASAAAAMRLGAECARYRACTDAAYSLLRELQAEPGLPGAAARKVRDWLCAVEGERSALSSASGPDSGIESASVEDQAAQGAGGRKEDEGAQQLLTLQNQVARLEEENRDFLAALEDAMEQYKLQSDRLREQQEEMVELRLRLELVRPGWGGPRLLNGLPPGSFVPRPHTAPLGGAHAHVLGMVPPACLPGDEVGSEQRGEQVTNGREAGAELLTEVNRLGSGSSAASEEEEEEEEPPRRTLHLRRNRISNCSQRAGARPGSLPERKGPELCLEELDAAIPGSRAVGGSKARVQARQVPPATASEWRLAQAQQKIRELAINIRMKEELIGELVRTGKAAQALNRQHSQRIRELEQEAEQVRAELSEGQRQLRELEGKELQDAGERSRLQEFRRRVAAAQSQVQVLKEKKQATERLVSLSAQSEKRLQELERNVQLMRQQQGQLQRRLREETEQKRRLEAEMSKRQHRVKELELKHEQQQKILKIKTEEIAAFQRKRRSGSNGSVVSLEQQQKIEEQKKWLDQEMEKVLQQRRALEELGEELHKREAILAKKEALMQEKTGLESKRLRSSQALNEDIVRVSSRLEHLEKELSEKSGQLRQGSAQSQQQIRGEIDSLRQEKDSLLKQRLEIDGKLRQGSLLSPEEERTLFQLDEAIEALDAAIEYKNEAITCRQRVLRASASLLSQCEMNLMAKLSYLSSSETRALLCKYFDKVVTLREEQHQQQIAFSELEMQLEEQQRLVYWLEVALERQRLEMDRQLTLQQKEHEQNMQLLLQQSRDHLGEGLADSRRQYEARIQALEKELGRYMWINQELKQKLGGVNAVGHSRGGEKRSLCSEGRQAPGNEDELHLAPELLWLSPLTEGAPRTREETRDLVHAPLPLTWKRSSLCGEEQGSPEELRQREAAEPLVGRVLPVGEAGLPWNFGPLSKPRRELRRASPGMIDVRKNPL
# UniProt Q15404: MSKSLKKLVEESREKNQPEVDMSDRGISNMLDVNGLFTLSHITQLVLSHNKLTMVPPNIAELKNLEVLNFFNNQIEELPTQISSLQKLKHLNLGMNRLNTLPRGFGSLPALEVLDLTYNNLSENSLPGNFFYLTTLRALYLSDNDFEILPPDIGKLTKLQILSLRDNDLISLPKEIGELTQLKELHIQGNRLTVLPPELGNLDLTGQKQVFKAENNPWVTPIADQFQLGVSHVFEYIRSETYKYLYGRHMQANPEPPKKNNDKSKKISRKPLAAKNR
# UniProt Q15390: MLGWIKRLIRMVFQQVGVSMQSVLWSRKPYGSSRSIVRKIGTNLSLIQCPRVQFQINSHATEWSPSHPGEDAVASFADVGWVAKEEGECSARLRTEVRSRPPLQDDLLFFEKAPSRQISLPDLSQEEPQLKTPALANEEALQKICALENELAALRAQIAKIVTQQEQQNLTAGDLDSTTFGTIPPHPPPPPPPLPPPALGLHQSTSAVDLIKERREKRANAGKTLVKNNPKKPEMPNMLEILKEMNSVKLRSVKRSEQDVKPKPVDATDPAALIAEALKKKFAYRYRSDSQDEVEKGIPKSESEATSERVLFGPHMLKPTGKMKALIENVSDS
# UniProt Q15717, whole entry: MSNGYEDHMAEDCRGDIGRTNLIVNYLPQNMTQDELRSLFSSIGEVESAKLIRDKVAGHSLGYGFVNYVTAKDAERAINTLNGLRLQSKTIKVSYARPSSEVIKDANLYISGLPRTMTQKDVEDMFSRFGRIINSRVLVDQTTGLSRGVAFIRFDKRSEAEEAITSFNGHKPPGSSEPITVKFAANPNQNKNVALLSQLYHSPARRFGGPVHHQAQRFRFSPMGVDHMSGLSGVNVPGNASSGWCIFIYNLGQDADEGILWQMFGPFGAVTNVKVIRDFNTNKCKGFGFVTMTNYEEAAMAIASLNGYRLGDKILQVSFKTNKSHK
# UniProt Q15744: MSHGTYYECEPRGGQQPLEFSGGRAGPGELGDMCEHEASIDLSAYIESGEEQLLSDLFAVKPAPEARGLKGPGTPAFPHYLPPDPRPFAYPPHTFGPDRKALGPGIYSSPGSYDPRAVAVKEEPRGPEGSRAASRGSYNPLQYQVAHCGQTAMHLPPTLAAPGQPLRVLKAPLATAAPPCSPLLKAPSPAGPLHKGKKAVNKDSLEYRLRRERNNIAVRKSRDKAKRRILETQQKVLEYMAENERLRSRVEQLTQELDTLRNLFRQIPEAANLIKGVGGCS
# UniProt Q3KQU3: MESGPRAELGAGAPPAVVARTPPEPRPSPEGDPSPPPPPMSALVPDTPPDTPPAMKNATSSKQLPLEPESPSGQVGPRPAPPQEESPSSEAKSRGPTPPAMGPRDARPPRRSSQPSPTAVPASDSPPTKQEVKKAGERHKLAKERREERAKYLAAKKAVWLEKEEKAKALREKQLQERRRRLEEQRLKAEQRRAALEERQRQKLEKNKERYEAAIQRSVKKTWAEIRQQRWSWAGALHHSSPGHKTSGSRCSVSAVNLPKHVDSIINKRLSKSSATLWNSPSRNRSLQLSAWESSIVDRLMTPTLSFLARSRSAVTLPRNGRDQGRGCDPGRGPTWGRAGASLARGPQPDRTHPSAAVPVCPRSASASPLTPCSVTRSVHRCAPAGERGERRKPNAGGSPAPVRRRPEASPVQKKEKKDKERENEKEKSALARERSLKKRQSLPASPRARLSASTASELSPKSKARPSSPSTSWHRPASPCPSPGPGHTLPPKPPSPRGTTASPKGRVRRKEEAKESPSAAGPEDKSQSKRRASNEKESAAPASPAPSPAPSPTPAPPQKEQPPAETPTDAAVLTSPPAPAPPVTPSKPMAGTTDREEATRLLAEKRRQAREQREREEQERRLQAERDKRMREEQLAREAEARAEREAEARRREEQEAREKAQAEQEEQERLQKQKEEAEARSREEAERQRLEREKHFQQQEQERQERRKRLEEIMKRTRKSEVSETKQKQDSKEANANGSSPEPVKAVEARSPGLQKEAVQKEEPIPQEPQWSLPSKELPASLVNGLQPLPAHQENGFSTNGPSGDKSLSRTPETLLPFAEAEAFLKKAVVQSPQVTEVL
# ± gives the standard deviation of the averaged measurements. This is a selection; strong and weak results do not stand in their true shares. Most entries show no effect beyond the scatter of the controls.
# Compound: Nc1ncnc2c1ncn2[C@@H]1O[C@H](COP(=O)(O)OP(=O)(O)OP(=O)(O)O)[C@@H](O)[C@H]1O [adenosine triphosphate]
# Experiment: NP40-soluble protein abundance relative to vehicle (solubility fold change) (ratio); higher = more soluble protein in presence of ATP
# How it was run: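 Jurkat crude lysate prepared with a Dounce homogeniser was treated at eight concentrations spanning 0.1 to 10 mM, 10 min at room temperature then 3 min at 37 °C. Solubilisation with 0.8% NP40 and benzonase and ultracentrifugation preceded TMT labelling of the supernatant for LC-MS/MS. Fold change against the detergent-processed vehicle was determined per replicate from vsn-normalised intensities, across three independent experiments.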
target,measurement,setting,value
WRN (UniProt Q14191),NP40-soluble protein abundance,concentration: 0.1mM,1.11 ± 0.068
same,NP40-soluble protein abundance,concentration: 0.5mM,1.19 ± 0.058
UniProt Q32MZ4 and related entries,NP40-soluble protein abundance,concentration: 0.1mM,0.965 ± 0.032
same,NP40-soluble protein abundance,concentration: 0.5mM,0.973 ± 0.041
UniProt Q16206 and related entries,NP40-soluble protein abundance,concentration: 0.1mM,0.933 ± 0.21
same,NP40-soluble protein abundance,concentration: 0.5mM,1.1 ± 0.14
UniProt Q14814-4,NP40-soluble protein abundance,concentration: 0.1mM,0.972 ± 0.028
same,NP40-soluble protein abundance,concentration: 0.5mM,0.94 ± 0.029
UniProt Q4G148 and related entries,NP40-soluble protein abundance,concentration: 0.1mM,0.924 ± 0.021
same,NP40-soluble protein abundance,concentration: 0.5mM,0.878 ± 0.099
GNPTAB (UniProt Q3T906),NP40-soluble protein abundance,concentration: 0.1mM,0.938 ± 0.11
same,NP40-soluble protein abundance,concentration: 0.5mM,0.926 ± 0.092
UniProt Q3ZCQ8 and related entries,NP40-soluble protein abundance,concentration: 0.1mM,1.02 ± 0.067
same,NP40-soluble protein abundance,concentration: 0.5mM,1 ± 0.086
UniProt Q4G0N4,NP40-soluble protein abundance,concentration: 0.1mM,1.03 ± 0.075
same,NP40-soluble protein abundance,concentration: 0.5mM,1.04 ± 0.053
TST (UniProt Q16762),NP40-soluble protein abundance,concentration: 0.1mM,1.04 ± 0.032
same,NP40-soluble protein abundance,concentration: 0.5mM,0.993 ± 0.025
UniProt Q14197,NP40-soluble protein abundance,concentration: 0.1mM,0.923 ± 0.08
same,NP40-soluble protein abundance,concentration: 0.5mM,0.961 ± 0.082
RHEB (UniProt Q15382),NP40-soluble protein abundance,concentration: 0.1mM,1 ± 0.037
same,NP40-soluble protein abundance,concentration: 0.5mM,1.04 ± 0.037
UniProt Q2M1P5,NP40-soluble protein abundance,concentration: 0.1mM,1.1 ± 0.18
same,NP40-soluble protein abundance,concentration: 0.5mM,1.03 ± 0.1
RSU1 (UniProt Q15404),NP40-soluble protein abundance,concentration: 0.1mM,1.03 ± 0.047
same,NP40-soluble protein abundance,concentration: 0.5mM,1.01 ± 0.066
PSME4 (UniProt Q14997),NP40-soluble protein abundance,concentration: 0.1mM,1.05 ± 0.072
same,NP40-soluble protein abundance,concentration: 0.5mM,1.02 ± 0.061
UniProt Q15390 and related entries,NP40-soluble protein abundance,concentration: 0.1mM,0.973 ± 0.053
same,NP40-soluble protein abundance,concentration: 0.5mM,0.954 ± 0.12
UniProt Q15542 and related entries,NP40-soluble protein abundance,concentration: 0.1mM,1.07 ± 0.095
same,NP40-soluble protein abundance,concentration: 0.5mM,1.08 ± 0.07
ELAVL1 (UniProt Q15717),NP40-soluble protein abundance,concentration: 0.1mM,1.01 ± 0.03
same,NP40-soluble protein abundance,concentration: 0.5mM,1.02 ± 0.037
UniProt Q15006,NP40-soluble protein abundance,concentration: 0.1mM,1 ± 0.017
same,NP40-soluble protein abundance,concentration: 0.5mM,1.004 ± 0.0065
UniProt Q15149 and related entries,NP40-soluble protein abundance,concentration: 0.1mM,1.01 ± 0.038
same,NP40-soluble protein abundance,concentration: 0.5mM,1.13 ± 0.06
ZYX (UniProt Q15942),NP40-soluble protein abundance,concentration: 0.1mM,0.972 ± 0.017
same,NP40-soluble protein abundance,concentration: 0.5mM,0.993 ± 0.051
CEBPE (UniProt Q15744),NP40-soluble protein abundance,concentration: 0.1mM,0.93 ± 0.097
same,NP40-soluble protein abundance,concentration: 0.5mM,0.871 ± 0.098
UniProt Q15043 and related entries,NP40-soluble protein abundance,concentration: 0.1mM,0.946 ± 0.12
same,NP40-soluble protein abundance,concentration: 0.5mM,0.95 ± 0.096
UniProt Q16656 and related entries,NP40-soluble protein abundance,concentration: 0.1mM,1.01 ± 0.035
same,NP40-soluble protein abundance,concentration: 0.5mM,0.957 ± 0.017
UniProt Q15397,NP40-soluble protein abundance,concentration: 0.1mM,1.06 ± 0.032
same,NP40-soluble protein abundance,concentration: 0.5mM,1.17 ± 0.018
same,NP40-soluble protein abundance,concentration: 1mM,1.28 ± 0.054
same,NP40-soluble protein abundance,concentration: 2mM,1.39 ± 0.058
same,NP40-soluble protein abundance,concentration: 4mM,1.53 ± 0.073
same,NP40-soluble protein abundance,concentration: 6mM,1.6 ± 0.13
same,NP40-soluble protein abundance,concentration: 8mM,1.7 ± 0.042
same,NP40-soluble protein abundance,concentration: 10mM,1.96 ± 0.12
CLPP (UniProt Q16740),NP40-soluble protein abundance,concentration: 0.1mM,0.983 ± 0.026
same,NP40-soluble protein abundance,concentration: 0.5mM,0.9671 ± 0.0077
UniProt Q14643 and related entries,NP40-soluble protein abundance,concentration: 0.1mM,1.04 ± 0.041
same,NP40-soluble protein abundance,concentration: 0.5mM,1.04 ± 0.031
same,NP40-soluble protein abundance,concentration: 1mM,1.05 ± 0.071
same,NP40-soluble protein abundance,concentration: 2mM,0.999 ± 0.065
same,NP40-soluble protein abundance,concentration: 4mM,1 ± 0.041
same,NP40-soluble protein abundance,concentration: 6mM,0.961 ± 0.07
same,NP40-soluble protein abundance,concentration: 8mM,1.02 ± 0.027
same,NP40-soluble protein abundance,concentration: 10mM,0.995 ± 0.045
UniProt Q3KQU3 and related entries,NP40-soluble protein abundance,concentration: 0.1mM,0.944 ± 0.1
same,NP40-soluble protein abundance,concentration: 0.5mM,0.989 ± 0.12
same,NP40-soluble protein abundance,concentration: 1mM,1.08 ± 0.1
same,NP40-soluble protein abundance,concentration: 2mM,1.03 ± 0.11
same,NP40-soluble protein abundance,concentration: 4mM,1.09 ± 0.13
same,NP40-soluble protein abundance,concentration: 6mM,1.13 ± 0.26
same,NP40-soluble protein abundance,concentration: 8mM,1.1 ± 0.16
same,NP40-soluble protein abundance,concentration: 10mM,1.14 ± 0.13

# Some of the entries above, reformatted:
target | measurement | setting | value
RHEB (UniProt Q15382) | NP40-soluble protein abundance | concentration: 0.5mM | 1.04 ± 0.037
UniProt Q15397 | NP40-soluble protein abundance | concentration: 4mM | 1.53 ± 0.073
UniProt Q14643 and related entries | NP40-soluble protein abundance | concentration: 4mM | 1 ± 0.041
same | NP40-soluble protein abundance | concentration: 6mM | 0.961 ± 0.07
